Source: ChEMBL document CHEMBL4196112, “Design of Selective sPLA2-X Inhibitor (-)-2-{2-[Carbamoyl-6-(trifluoromethoxy)-1H-indol-1-yl]pyridine-2-yl}propanoic Acid” (ACS Med Chem Lett, 2018)

Assays:
[1] = Lipophilicity, log D of compound at pH 7.4; conditions: buffer
Homo sapiens = species: Homo sapiens; test: Selectivity ratio of IC50 for sPLA2-2A (unknown origin) to IC50 for sPLA2-10 (unknown origin)

NC(=O)c1cc2ccc(OC(F)(F)F)cc2n1-c1cccc(CCC(=O)O)c1
logD [1]: 1.2 | Ratio IC50 (Homo sapiens): 12
